From patent US10227357B2, “Compounds and methods for kinase modulation, and indications therefor” (Plexxikon Inc., priority 2012, dated 2019)
Some of these results come from one statement about several compounds together.

By UniProt entry, the sequences of proteins in these tests, tags left out.
UniProt P10721, whole entry D816V: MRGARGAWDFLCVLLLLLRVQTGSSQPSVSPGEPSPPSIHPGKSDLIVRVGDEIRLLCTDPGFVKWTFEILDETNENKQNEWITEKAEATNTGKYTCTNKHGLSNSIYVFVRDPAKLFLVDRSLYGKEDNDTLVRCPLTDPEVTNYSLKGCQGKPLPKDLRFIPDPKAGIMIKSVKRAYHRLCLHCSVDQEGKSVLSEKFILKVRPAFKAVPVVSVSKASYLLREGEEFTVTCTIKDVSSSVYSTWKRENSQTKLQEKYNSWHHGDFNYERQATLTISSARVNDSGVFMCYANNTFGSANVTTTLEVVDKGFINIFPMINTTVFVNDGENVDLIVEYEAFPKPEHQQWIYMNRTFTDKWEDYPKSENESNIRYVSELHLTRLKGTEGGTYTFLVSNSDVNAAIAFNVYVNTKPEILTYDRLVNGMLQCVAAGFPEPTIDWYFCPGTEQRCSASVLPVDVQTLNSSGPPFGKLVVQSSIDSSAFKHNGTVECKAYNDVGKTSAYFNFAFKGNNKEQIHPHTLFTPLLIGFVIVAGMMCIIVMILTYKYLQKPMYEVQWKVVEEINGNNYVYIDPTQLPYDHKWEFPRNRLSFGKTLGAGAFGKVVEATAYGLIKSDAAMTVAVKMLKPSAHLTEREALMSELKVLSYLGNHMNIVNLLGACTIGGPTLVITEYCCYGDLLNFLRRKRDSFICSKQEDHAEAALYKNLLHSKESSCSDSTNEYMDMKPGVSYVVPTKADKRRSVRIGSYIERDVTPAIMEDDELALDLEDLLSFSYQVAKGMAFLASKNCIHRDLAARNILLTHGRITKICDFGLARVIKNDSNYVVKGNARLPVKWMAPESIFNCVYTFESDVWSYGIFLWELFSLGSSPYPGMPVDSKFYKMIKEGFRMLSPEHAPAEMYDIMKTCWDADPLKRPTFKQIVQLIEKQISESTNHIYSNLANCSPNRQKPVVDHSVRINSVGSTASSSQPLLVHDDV

What follows are compounds tested against BaF3-FL KIT D816V cells (Homo sapiens, UniProt P10721, D816V, cells depend on it, form not given) (assay: Cell-based assay of c-Kit mutant kinase activity, BaF3-FL KIT D816V cell proliferation (ATPlite)). Conditions: in at least one of the c-kit cell assays described in Example 28 (BaF3-FL KIT D816V or BaF3-FL KIT V560G/D816V); read-out: IC50 (the source's name).

SMILES	GI50 [µM]
CCCNC(=O)N1CCN(c2ncnc3[nH]ccc23)CC1 [P-0203, N-propyl-4-(7H-pyrrolo[2,3-d]pyrimidin-4-yl)piperazine-1-carboxamide]	< 10
O=C(NC1CCCCC1)N1CCN(c2ncnc3[nH]ccc23)CC1 [P-0204, N-cyclohexyl-4-(7H-pyrrolo[2,3-d]pyrimidin-4-yl)piperazine-1-carboxamide]	< 10
Cc1ccccc1C(=O)c1c[nH]c2ncnc(N3CCN(c4cc(NC5CC5)ncn4)CC3)c12 [P-0206, [4-[4-[6-(cyclopropylamino)pyrimidin-4-yl]piperazin-1-yl]-7H-pyrrolo[2,3-d]pyrimidin-5-yl]-(o-tolyl)methanone]	< 10
O=C(c1ccc(Cl)cc1)c1cc2c(N3CCN(C(=O)NCc4ccc(F)cc4)CC3)ncnc2[nH]1 [P-0207, 4-[6-(4-chlorobenzoyl)-7H-pyrrolo[2,3-d]pyrimidin-4-yl]-N-[(4-fluorophenyl)methyl]piperazine-1-carboxamide]	< 10
O=C(c1cc2c(N3CCN(C(=O)NCc4ccc(F)cc4)CC3)ncnc2[nH]1)C1CC1 [P-0209, 4-[6-(cyclopropanecarbonyl)-7H-pyrrolo[2,3-d]pyrimidin-4-yl]-N-[(4-fluorophenyl)methyl]piperazine-1-carboxamide]	< 10
CC(C)(C)OC(=O)N1CCN(c2ncnc3[nH]c(C(=O)Nc4ccccc4)cc23)CC1 [P-0211, tert-butyl 4-[6-(phenylcarbamoyl)-7H-pyrrolo[2,3-d]pyrimidin-4-yl]piperazine-1-carboxylate]	< 10
O=C(NCc1ccc(Cl)cc1)N1CCN(c2ncnc3[nH]c(-c4ccc(Cl)cc4)cc23)CC1 [P-0212, N-[(4-chlorophenyl)methyl]-4-[6-(4-chlorophenyl)-7H-pyrrolo[2,3-d]pyrimidin-4-yl]piperazine-1-carboxamide]	< 10
CCOc1ccc(NC(=O)N2CCN(c3ncnc4[nH]c(-c5ccc(Cl)cc5)cc34)CC2)cc1 [P-0214, 4-[6-(4-chlorophenyl)-7H-pyrrolo[2,3-d]pyrimidin-4-yl]-N-(4-ethoxyphenyl)piperazine-1-carboxamide]	< 10
O=C(NCc1ccc(Cl)cc1)N1CCN(c2ncnc3[nH]c(-c4ccccc4)cc23)CC1 [P-0215, N-[(4-chlorophenyl)methyl]-4-(6-phenyl-7H-pyrrolo[2,3-d]pyrimidin-4-yl)piperazine-1-carboxamide]	< 10
COc1cc(NC(=O)N2CCN(c3ncnc4[nH]cc(-c5ccccc5)c34)CC2)cc(OC)c1 [P-0216, N-(3,5-dimethoxyphenyl)-4-(5-phenyl-7H-pyrrolo[2,3-d]pyrimidin-4-yl)piperazine-1-carboxamide]	< 10
COc1ccc(S(=O)(=O)N2CCN(c3ncnc4[nH]ccc34)CC2)cc1 [P-0217, 4-[4-(4-methoxyphenyl)sulfonylpiperazin-1-yl]-7H-pyrrolo[2,3-d]pyrimidine]	< 10
CCCNC(=O)N1CCN(c2ncnc3[nH]c(-c4cccnc4)cc23)CC1 [P-0218, N-propyl-4-[6-(3-pyridyl)-7H-pyrrolo[2,3-d]pyrimidin-4-yl]piperazine-1-carboxamide]	< 10
O=C(Nc1ccccc1Cl)N1CCN(c2ncnc3[nH]c(-c4cccnc4)cc23)CC1 [P-0219, N-(2-chlorophenyl)-4-[6-(3-pyridyl)-7H-pyrrolo[2,3-d]pyrimidin-4-yl]piperazine-1-carboxamide]	< 10
O=C(Nc1ccccc1Cl)N1CCN(c2ncnc3[nH]c(-c4cccnc4)cc23)CC1 [P-0220, N-(2-chlorophenyl)-4-[6-(3-pyridyl)-7H-pyrrolo[2,3-d]pyrimidin-4-yl]piperazine-1-carboxamide]	< 10
CCOc1cccc(NC(=O)N2CCN(c3ncnc4[nH]c(-c5cccnc5)cc34)CC2)c1 [P-0221, N-(3-ethoxyphenyl)-4-[6-(3-pyridyl)-7H-pyrrolo[2,3-d]pyrimidin-4-yl]piperazine-1-carboxamide]	< 10
O=C(NCc1ccc(F)cc1)N1CCN(c2ncnc3[nH]c(-c4cccnc4)cc23)CC1 [P-0222, N-[(4-fluorophenyl)methyl]-4-[6-(3-pyridyl)-7H-pyrrolo[2,3-d]pyrimidin-4-yl]piperazine-1-carboxamide]	< 10
CCOc1ccc(NC(=O)N2CCN(c3ncnc4[nH]c(-c5cccnc5)cc34)CC2)cc1 [P-0225, N-(4-ethoxyphenyl)-4-[6-(3-pyridyl)-7H-pyrrolo[2,3-d]pyrimidin-4-yl]piperazine-1-carboxamide]	< 10
COc1cc(NC(=O)N2CCN(c3ncnc4[nH]c(-c5cccnc5)cc34)CC2)cc(OC)c1 [P-0229, N-(3,5-dimethoxyphenyl)-4-[6-(3-pyridyl)-7H-pyrrolo[2,3-d]pyrimidin-4-yl]piperazine-1-carboxamide]	< 10
CC(C)(C)OC(=O)N1CCN(c2ncnc3[nH]c(-c4cccnc4)cc23)CC1 [P-0232, tert-butyl 4-[6-(3-pyridyl)-7H-pyrrolo[2,3-d]pyrimidin-4-yl]piperazine-1-carboxylate]	< 10
c1nc(N2CCNCC2)c2cc[nH]c2n1 [P-0233, 4-piperazin-1-yl-7H-pyrrolo[2,3-d]pyrimidine]	< 10
COc1ccc(C(=O)N2CCN(c3ncnc4[nH]ccc34)CC2)cc1 [P-0234, (4-methoxyphenyl)-[4-(7H-pyrrolo[2,3-d]pyrimidin-4-yl)piperazin-1-yl]methanone]	< 10
COc1ccc(NC(=O)N2CCN(c3ncnc4[nH]ccc34)CC2)cc1 [P-0235, N-(4-methoxyphenyl)-4-(7H-pyrrolo[2,3-d]pyrimidin-4-yl)piperazine-1-carboxamide]	< 10
CCCNC(=O)N1CCN(c2ncnc3[nH]c(-c4ccccc4)cc23)CC1 [P-0236, 4-(6-phenyl-7H-pyrrolo[2,3-d]pyrimidin-4-yl)-N-propyl-piperazine-1-carboxamide]	< 10
O=C(Nc1ccccc1Cl)N1CCN(c2ncnc3[nH]c(-c4ccccc4)cc23)CC1 [P-0237, N-(2-chlorophenyl)-4-(6-phenyl-7H-pyrrolo[2,3-d]pyrimidin-4-yl)piperazine-1-carboxamide]	< 10
COc1cccc(NC(=O)N2CCN(c3ncnc4[nH]c(-c5ccccc5)cc34)CC2)c1 [P-0238, N-(3-methoxyphenyl)-4-(6-phenyl-7H-pyrrolo[2,3-d]pyrimidin-4-yl)piperazine-1-carboxamide]	< 10
COc1cc(NC(=O)N2CCN(c3ncnc4[nH]c(-c5ccccc5)cc34)CC2)cc(OC)c1 [P-0239, N-(3,5-dimethoxyphenyl)-4-(6-phenyl-7H-pyrrolo[2,3-d]pyrimidin-4-yl)piperazine-1-carboxamide]	< 10
COc1ccc(NC(=O)N2CCN(c3ncnc4[nH]c(-c5ccccc5)cc34)CC2)cc1 [P-0240, N-(4-methoxyphenyl)-4-(6-phenyl-7H-pyrrolo[2,3-d]pyrimidin-4-yl)piperazine-1-carboxamide]	< 10
O=C(NCc1ccc(F)cc1)N1CCN(c2ncnc3[nH]c(-c4ccccc4)cc23)CC1 [P-0242, N-[(4-fluorophenyl)methyl]-4-(6-phenyl-7H-pyrrolo[2,3-d]pyrimidin-4-yl)piperazine-1-carboxamide]	< 10
O=C(Nc1ccc(F)cc1)N1CCN(c2ncnc3[nH]c(-c4ccccc4)cc23)CC1 [P-0243, N-(4-fluorophenyl)-4-(6-phenyl-7H-pyrrolo[2,3-d]pyrimidin-4-yl)piperazine-1-carboxamide]	< 10
